3 substances from publication PMC7515705 can be followed below.

These are yes or no findings as the source states them, for the method shown. In cells and extracts the contact can be indirect. Binding can be weak; no strength is given. Tags and fused reporters may be left off the sequences shown.

For test [1], the target named is T1, YBEY-3 × FLAG (human) (UniProt P58557).
T1 sequence: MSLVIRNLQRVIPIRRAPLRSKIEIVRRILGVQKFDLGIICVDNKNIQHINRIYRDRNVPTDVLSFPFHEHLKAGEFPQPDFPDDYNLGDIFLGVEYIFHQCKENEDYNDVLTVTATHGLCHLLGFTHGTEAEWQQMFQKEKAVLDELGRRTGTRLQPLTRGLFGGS
The experiment in a line: co-IP; α-FLAG antibody and protein A-sepharose on mitochondrial lysates of SAL001 cells expressing YBEY-3 × FLAG; parental cells as control; western blotting of lysate, flow-through, wash and IP fractions.

The target in test [2] is T2, YBEY-His6 (human) (UniProt P58557).
T2 sequence: T1 sequence
In words: pull-down; cleared lysates of E. coli co-expressing YBEY-His6 and p32 and of E. coli expressing uS11m mixed 1:1, 30 min at 4°C, then Ni-NTA agarose, native conditions, step elution with imidazole.

With uS11m, endogenous, the binding result in test [1] is reported as “binds”.
With mS35, the binding result in test [1] is reported as “no binding”.
In the case of uS11m (mature form, tagless) (human), in test [2], the binding entry is given as “binds”.
